# At least one structure is not confirmed: it was looked up by name or label, or the drawing left a doubt.
# Test system: intracellular Salmonella in RAW264.7 cells
# Assay: Intracellular Salmonella with cefixime or ciprofloxacin alone or combined with SW14 (HCA)
# Format: cell-based
# Conditions: 24 hours, alone or combined with 0.5 μM SW14
# Protocol: FIG. 4. Salmonella-infected RAW264.7 cells treated with (A) 0.25, 0.5, 1, 2, and 4 mg/L of cefixime (CFM) and (B) 0.03, 0.06, 0.125, 0.25, and 0.5 mg/L of ciprofloxacin (CIP) alone or in combination with 0.5 μM SW14. After 24 hours, the relative numbers of intracellular bacteria were determined using HCA and the results are expressed as relative fluorescence units (RFU).
smiles,measurement,value
"C=CC1=C(C(=O)O)N2C(=O)[C@@H](NC(=O)/C(=N\OCC(=O)O)c3csc(N)n3)[C@H]2SC1 [CFM, cefixime]","survival of intracellular Salmonella in macrophages, antibiotic treatment",inhibited the survival of intracellular Salmonella in macrophages in a dose-dependent manner

# — US11925650B2, “Antibacterial chemical compound, its manufacturing method and its use thereof” (National Taiwan University, priority 2022, dated 2024)
